Source: PubChem BioAssay AID588463 (National Center for Advancing Translational Sciences (NCATS), 2011)
Screen size: about 1,200 compounds; about 15 (1%) were called active. Inconclusive results (about 7%) are left out. Calls follow the shape of the dose curve; as a rule, active = well fitted activation curve with a large enough effect; inconclusive = small, poorly fitted or top-dose-only effect; inactive = flat fitted curve, though single readings scatter. Some of the results follow.

biological target: Beta-2 adrenergic receptor (Homo sapiens) (UniProt P07550); assay: qHTS assay of beta-arrestin-biased ligands of beta2-adrenergic receptor: Hit Validation; conditions: cell-based beta-arrestin recruitment to beta2AR; Potency: activation; series mostly up to 46.1 µM; activation: at the top concentration;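 also: plate controls were DMSO for no effect and maximal isoproterenol or metaproterenol response for full effect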
Outline: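 Luminescent tTA-driven luciferase reporter in Tango cells, read after 18 h at 37 °C with compound and 15 min with substrate mix (0.15 mM ATP, 0.44 mM D-luciferin, final). Concentration-response fits categorized by curve class.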

activation, inactive:
C/C(=N/NC(=S)Nc1cccc(C)c1)c1cccc([N+](=O)[O-])c1 -2%
CC(=O)c1cc2c(cc1NC(=O)c1ccc(C)cc1)OCO2 3.05%
Cc1nc(COC(=O)c2ccc(S(=O)(=O)N3CCCC3)cc2)cs1 -0.855%
NS(=O)(=O)c1ccc(CCNC(=O)CSc2ccc(Cl)cc2)cc1 -1.77%
COc1ccc(C(CNC(=O)c2ccc(C)c(S(=O)(=O)Nc3ccccc3OC)c2)N2CCCC2)cc1 (stereo not given) -0.677%
CC(/C=C/c1ccc2c(c1)OCO2)=N/NC(=O)c1cccnc1 -3.83%
C/C(=N\NC(=S)NCc1ccccc1)c1ccc(Br)cc1 -1.17%
Cc1cccc(NC(=S)Nc2cccc(C)n2)n1 -3.32%
N=c1n(Cc2ccccc2)c2ccccc2n1Cc1ccccc1 -2.83%
CNC(=S)N/N=C/c1cc(C)n(-c2ccc(Cl)c(Cl)c2)c1C -2.09%
C/C(=N\NC(=S)NCc1ccccc1)c1ccc2ccccc2c1OC(F)F -2.23%
C[C@@H](NC(=O)c1coc(=O)c(Br)c1)c1ccccc1 -3.18%
FC(F)(F)c1cc(Nc2ccccc2)nc(-c2ccccn2)n1 -0.114%
Cc1nn(C)cc1/C=N/NC(=S)Nc1ccccc1 -2.3%
Cc1[nH]c2ccccc2c1/C=N/Nc1cccc(C(=O)O)c1 -0.789%
CN1CCN(C(=O)c2ccccc2[N+](=O)[O-])CC1 -4.99%
CCn1c(SCC(=O)N/N=C/C=C/c2ccco2)nc2ccccc21 -2.47%
CCOC(=O)N1C/C(=C\c2ccccc2)C(=O)/C(=C/c2ccccc2)C1 -3.82%
Cc1ccc(SCc2cc(=O)[nH]c(/N=C(\N)Nc3ccc(C)c(C)c3)n2)cc1 -2.5%
COC(=O)c1cccc(/C=N/NC(N)=S)c1O -3.45%
Cc1ccc(NC(=S)N2CCn3cccc3C2c2cccnc2)cc1 (stereo not given) 4.9%
CCNC(=S)NNC(=O)c1cc(-c2cc(C)ccc2C)nc2ccccc12 0.0925%
CN(Cc1ccccc1)CC(O)COc1ccc(CNCc2nccn2C)cc1 (stereo not given) -3.53%
O=C1c2ccccc2[C@@H]2C[C@@H](O)[C@H](Nc3cccc4ccccc34)CCN12 -2.47%
COc1ccc(/C(C)=N/NC(=S)NCCc2ccccc2)c(O)c1 -2.86%
CCN(C(=O)Cn1c(Cl)nc2c1c(=O)n(C)c(=O)n2C)C1CCCCC1 -1.79%
CNC(=S)N/N=C(\C)c1ccc(Cl)c(Cl)c1 -0.919%
Cn1c(=O)c2c(-c3ccccc3)n(-n3cnnc3)cc2n(C)c1=O -0.697%
NC(=S)NN=C(Cc1ccccc1)Cc1ccccc1 -1.78%
O=C(COC(=O)c1ccc(CO)cc1)NCc1cccs1 2.78%
CCCCN(CCCC)CCCNC(=O)Cn1cc2c(n1)-c1c(oc(C(=O)N3CCCC3)c1C)CC2 11%
CCCCn1c(-c2sccc2C)n[nH]c1=S -5.68%
COc1ccc(C(NC(=O)/C=C/c2ccco2)c2ccc(OC)c(OC)c2)cc1OC -2.72%
CCNC(=S)/N=C(\N)Nc1nc(C)c2cc(C)ccc2n1 -1.6%
CSCC[C@H](NC(=O)c1ccc(OCC2CCCO2)cc1)c1nc2ccccc2[nH]1 (stereo not given in full) 3.23%
Cc1cc(C2CCCCC2)n(O)c(=O)c1 -2.4%
Cc1sc2nc(CSCC(=O)Nc3c(F)cccc3F)[nH]c(=O)c2c1C -4.73%
CC1=NN(C(N)=S)C(=O)C1N=Nc1cccc(C)c1 (stereo not given) -2.95%
O=C(NC1CCN(Cc2ccccc2)CC1)c1c(F)cccc1F -3.57%
COC(=O)c1ccc(-c2ccc(F)cc2)nc1C -3.87%
CCCCCC(=O)Nc1cccc(C2=NOC3(C2)C[C@@H](C(N)=O)N(C(=O)CC(c2ccccc2)c2ccccc2)C3)c1 (stereo not given in full) -2.41%
CCN(CC)c1ccc(N2C(=O)/C(=C/c3cccnc3)SC2=S)cc1 -2.32%
Cc1ccc(S(=O)(=O)N(CC(=O)N/N=C/c2ccco2)c2cc(Cl)cc(Cl)c2)cc1 0.42%
C=C(C)C(=O)Oc1ccc(N2C(=O)[C@@H]3C4C=CC(C4)[C@@H]3C2=O)cc1 -0.877%
COc1ccccc1N=NC1C(=O)N(C(N)=S)N=C1C (stereo not given) -4.57%
CCNC(=S)NNc1nncc2ccccc12 -2.03%
COc1ccc(C)cc1N(C(=O)c1cccc(F)c1)c1nc2ccccc2s1 6.6%
O=[N+]([O-])c1ccc(/C=C2\CCC(C3=CCCC3)=C2N2CCOCC2)cc1 -1.92%
Cc1nn(-c2ccccc2)c(C)c1/C=N/NC(=O)CSc1nnc(SCc2ccccc2Cl)s1 -0.869%
Cc1cccc(N=C2NC(=O)/C(=C/c3cccs3)S2)c1 -0.803%
O=[N+]([O-])c1cc(Br)cc(C=Nc2ccc3c(c2)OCO3)c1O -0.425%
O=C(Oc1ccc(Cl)c2cccnc12)c1ccco1 0.103%
O=C(N/N=C/c1c[nH]c2ccc(Br)cc12)C1CC1 -2.83%
COc1ccc(-c2nnc(SCC(=O)Nc3cc(C)on3)o2)cc1 -3.61%
Cc1ccc(/C=C2/C(=O)N(c3ccccc3)C(=S)N2C)o1 -3.96%
CCc1cc2c(=O)nc3n(c2s1)Cc1ccccc1/C3=C(/O)c1ccc(F)cc1 1.92%
COc1ccc(CN2CSC(=S)N(Cc3ccccc3)C2)cc1 -4.29%
COc1ccc(C(=O)C2CCCN(C/C=C/c3ccccc3OC)C2)c(OC)c1 (stereo not given) 5.65%
CN(C(=O)CSc1nnc(-c2cccs2)n1C1CC1)C1CCS(=O)(=O)C1 (stereo not given) -2.77%
CCn1c(SCC(=O)c2ccc(Cl)cc2)nnc1C(C)C -0.908%
S=C(Nc1ccccc1)Nc1nc2ccccc2n1CCOc1ccc(Cl)cc1 -4.14%
CCCC(=O)NC(=S)Nc1ccc(Cl)cn1 -1.8%
N#CC[C@H](Cc1ccccc1)N1CC[C@@H](O)CCC1=O -0.52%
CC1=CC2=NC(=O)/C(=C/c3coc4ccccc4c3=O)C(=N)N2O1 -1.65%
COc1ccc(OCCCC(=O)Nc2nc(-c3ccccn3)cs2)cc1 9.17%
O=C(O)c1[nH]c2ccccc2c1C(c1cc(Br)ccc1O)c1c(C(=O)O)[nH]c2ccccc12 -1.89%
O=C(Cn1cc(-c2nnnn2-c2ccc(Cl)cc2)c(=O)c2ccccc21)c1ccccc1 -1.66%
CC1CN(C(=S)NC(=O)c2ccc([N+](=O)[O-])cc2)CC(C)O1 (stereo not given) -1.79%
Cc1ccc(C(=O)N/C(=C\c2ccco2)C(=O)NCCc2c[nH]c3ccccc23)cc1 -2.46%
CC(C)(O)C(=O)NN(C(=O)c1ccccc1)c1ccc2ccccc2c1 -2.62%

By substructure: the compounds so far containing a COOH group.
activation, inactive:
Cc1[nH]c2ccccc2c1/C=N/Nc1cccc(C(=O)O)c1 -0.789%
O=C(O)c1[nH]c2ccccc2c1C(c1cc(Br)ccc1O)c1c(C(=O)O)[nH]c2ccccc12 -1.89%

Sorted by count of non-hydrogen atoms (ascending): part of the list above.
activation, inactive:
N=c1n(Cc2ccccc2)c2ccccc2n1Cc1ccccc1 -2.83%
CCn1c(SCC(=O)N/N=C/C=C/c2ccco2)nc2ccccc21 -2.47%
S=C(Nc1ccccc1)Nc1nc2ccccc2n1CCOc1ccc(Cl)cc1 -4.14%
